# Measurements reported in PubChem BioAssay AID504804 (Drosophila RNAi Screening Center, 2011).
# Aim: 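Knock-downs shielding fly cells from apoptosis caused by DNA damage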 (primary screen)
# System: Drosophila Kc cells
# Knock-down reagent: long dsRNA against Drosophila genes, 0.5 µg dsRNA per well
# Time to read-out: 96 h (48 h knock-down, then 48 h drug)
# Treatment: doxorubicin 5 µg/ml for 48 h, added 48 h after dsRNA
# Read-out: 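Viability measured as cellular ATP by luminescence after 48 h knock-down then 48 h doxorubicin at 5 µg/ml; unnormalised plate counts for each replicate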
# Direction: raw ATP luminescence: higher = more viable cells, protection from doxorubicin
# Call rule: 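z-score of 2 or more over plate mean in both duplicates, retained only when retests and separate dsRNAs confirm the protection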
# In all, the deposit lists about 19,000 reagents; this is a random part of those with a known target gene and a result. In the full data, 47 (0.25%) got an active call. 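Signals are raw, not normalised; exact z-scores behind calls not deposited; actives needed confirmation, so some wells reaching 2 SD are inactive.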 Names joined by + are all predicted targets of the reagent.
"raw ATP luminescence, replicate 1","raw ATP luminescence, replicate 2",Outcome,Target gene,amplicon
93280,94290,inactive,Pus7 (Pseudouridine synthase 7),DRSC10703
1.90e5,1.66e5,inactive,CG7091,DRSC12944
1.05e5,65860,inactive,CG7091,DRSC16197
46240,85860,inactive,CG5793,DRSC15874
37253,39160,inactive,Mat89Ba (Maternal transcript 89Ba),DRSC14540
1.07e5,66383,inactive,Idgf3 (Imaginal disc growth factor 3),DRSC03351
63240,61260,inactive,Cpr49Ae (Cuticular protein 49Ae),DRSC07201
81073,63437,inactive,CG32085,DRSC10138
64320,56783,inactive,CG32085,DRSC10139
60030,62013,inactive,CG32085,DRSC10576
1.12e5,98363,inactive,Lamtor2 + CG30120,DRSC05726
49417,58297,inactive,Diap2 (Death-associated inhibitor of apoptosis 2),DRSC07444
59503,50833,inactive,CG42565,DRSC04154
38980,58560,inactive,alien + CG17906,DRSC02641
64670,54760,inactive,ca (claret),DRSC15306
62360,38300,inactive,ca (claret),DRSC16314
71127,70830,inactive,Ebp (Ejaculatory bulb protein),DRSC04048
61533,64540,inactive,cas (castor),DRSC12373
2.58e5,2.41e5,inactive,hep (hemipterous),DRSC19839
2.97e5,2.78e5,inactive,hep (hemipterous),DRSC20337
3.37e5,3.33e5,inactive,Hers (Histone gene-specific Epigenetic Repressor in late S phase),DRSC19676
50330,38957,inactive,CG12436 (retired record),DRSC09869
36987,29797,inactive,CG12436 (retired record),DRSC09885
68140,58430,inactive,Alg13 (Alg13 UDP-N-acetylglucosaminyltransferase subunit),DRSC14864
73060,81080,inactive,CG17744,DRSC10286
56040,53603,inactive,CG9459,DRSC16496
1.76e5,1.19e5,inactive,CR41501 (pseudo),DRSC07785
22480,26437,inactive,LUBEL (Linear Ubiquitin E3 ligase),DRSC02141
43800,47800,inactive,LSm1 (Like Sm 1),DRSC04458
36490,34620,inactive,east (enhanced adult sensory threshold),DRSC18770
51430,47237,inactive,CG12768,DRSC11680
55827,50710,inactive,CG6830,DRSC16124
37730,42917,inactive,CycT (Cyclin T),DRSC11124
3.18e5,3.10e5,inactive,Amy-d + Amy-p,DRSC21242
97637,52707,inactive,CRMP (Collapsin Response Mediator Protein),DRSC12073
53907,22437,inactive,CRMP (Collapsin Response Mediator Protein),DRSC12345
65920,59333,inactive,mirr (mirror),DRSC11369
69620,55600,inactive,CG2680,DRSC18466
52930,58470,inactive,CG11231 (retired record),DRSC17207
40260,30753,inactive,CG17230,DRSC15203
31050,37190,inactive,CG14431,DRSC17925
51450,64460,inactive,CG18823,DRSC18168
43360,24817,inactive,wge (winged eye),DRSC15246
67370,71100,inactive,wge (winged eye),DRSC15672
78407,89947,inactive,Cdc23 (Cell division cycle 23),DRSC02708
59673,72920,inactive,CG32440,DRSC11480
72813,58247,inactive,ko (knockout),DRSC11893
2.46e5,2.78e5,inactive,CG6073,DRSC15962
28470,43040,inactive,CG4593,DRSC18374
25293,42860,inactive,MYPT-75D (Myosin phosphatase targeting subunit 75D),DRSC10743
38117,59063,inactive,Gr59c (Gustatory receptor 59c),DRSC04185
63053,66010,inactive,Orc5 (Origin recognition complex subunit 5),DRSC03390
1.74e5,2.04e5,inactive,CG34015,DRSC19140
49700,44523,inactive,edin (elevated during infection),DRSC09488
82697,67433,inactive,Tektin-A (Tektin A),DRSC01921
52660,51670,inactive,CG8516,DRSC16437
47983,47140,inactive,Sf3b5 (Splicing factor 3b subunit 5),DRSC14460

Only “raw ATP luminescence, replicate 1” (8 entries from above):
CG5793 [DRSC15874]	46240
Mat89Ba (Maternal transcript 89Ba) [DRSC14540]	37253
Idgf3 (Imaginal disc growth factor 3) [DRSC03351]	1.07e5
Cpr49Ae (Cuticular protein 49Ae) [DRSC07201]	63240
CG32085 [DRSC10138]	81073
CG32085 [DRSC10139]	64320
CG32085 [DRSC10576]	60030
Lamtor2 + CG30120 [DRSC05726]	1.12e5
